One substance from article PMC7241524 can be followed below.

Sequences of proteins named here, by UniProt entry; tags and fusion partners are left off. Residues count along the entry.
UniProt P46531, residues 19-2555: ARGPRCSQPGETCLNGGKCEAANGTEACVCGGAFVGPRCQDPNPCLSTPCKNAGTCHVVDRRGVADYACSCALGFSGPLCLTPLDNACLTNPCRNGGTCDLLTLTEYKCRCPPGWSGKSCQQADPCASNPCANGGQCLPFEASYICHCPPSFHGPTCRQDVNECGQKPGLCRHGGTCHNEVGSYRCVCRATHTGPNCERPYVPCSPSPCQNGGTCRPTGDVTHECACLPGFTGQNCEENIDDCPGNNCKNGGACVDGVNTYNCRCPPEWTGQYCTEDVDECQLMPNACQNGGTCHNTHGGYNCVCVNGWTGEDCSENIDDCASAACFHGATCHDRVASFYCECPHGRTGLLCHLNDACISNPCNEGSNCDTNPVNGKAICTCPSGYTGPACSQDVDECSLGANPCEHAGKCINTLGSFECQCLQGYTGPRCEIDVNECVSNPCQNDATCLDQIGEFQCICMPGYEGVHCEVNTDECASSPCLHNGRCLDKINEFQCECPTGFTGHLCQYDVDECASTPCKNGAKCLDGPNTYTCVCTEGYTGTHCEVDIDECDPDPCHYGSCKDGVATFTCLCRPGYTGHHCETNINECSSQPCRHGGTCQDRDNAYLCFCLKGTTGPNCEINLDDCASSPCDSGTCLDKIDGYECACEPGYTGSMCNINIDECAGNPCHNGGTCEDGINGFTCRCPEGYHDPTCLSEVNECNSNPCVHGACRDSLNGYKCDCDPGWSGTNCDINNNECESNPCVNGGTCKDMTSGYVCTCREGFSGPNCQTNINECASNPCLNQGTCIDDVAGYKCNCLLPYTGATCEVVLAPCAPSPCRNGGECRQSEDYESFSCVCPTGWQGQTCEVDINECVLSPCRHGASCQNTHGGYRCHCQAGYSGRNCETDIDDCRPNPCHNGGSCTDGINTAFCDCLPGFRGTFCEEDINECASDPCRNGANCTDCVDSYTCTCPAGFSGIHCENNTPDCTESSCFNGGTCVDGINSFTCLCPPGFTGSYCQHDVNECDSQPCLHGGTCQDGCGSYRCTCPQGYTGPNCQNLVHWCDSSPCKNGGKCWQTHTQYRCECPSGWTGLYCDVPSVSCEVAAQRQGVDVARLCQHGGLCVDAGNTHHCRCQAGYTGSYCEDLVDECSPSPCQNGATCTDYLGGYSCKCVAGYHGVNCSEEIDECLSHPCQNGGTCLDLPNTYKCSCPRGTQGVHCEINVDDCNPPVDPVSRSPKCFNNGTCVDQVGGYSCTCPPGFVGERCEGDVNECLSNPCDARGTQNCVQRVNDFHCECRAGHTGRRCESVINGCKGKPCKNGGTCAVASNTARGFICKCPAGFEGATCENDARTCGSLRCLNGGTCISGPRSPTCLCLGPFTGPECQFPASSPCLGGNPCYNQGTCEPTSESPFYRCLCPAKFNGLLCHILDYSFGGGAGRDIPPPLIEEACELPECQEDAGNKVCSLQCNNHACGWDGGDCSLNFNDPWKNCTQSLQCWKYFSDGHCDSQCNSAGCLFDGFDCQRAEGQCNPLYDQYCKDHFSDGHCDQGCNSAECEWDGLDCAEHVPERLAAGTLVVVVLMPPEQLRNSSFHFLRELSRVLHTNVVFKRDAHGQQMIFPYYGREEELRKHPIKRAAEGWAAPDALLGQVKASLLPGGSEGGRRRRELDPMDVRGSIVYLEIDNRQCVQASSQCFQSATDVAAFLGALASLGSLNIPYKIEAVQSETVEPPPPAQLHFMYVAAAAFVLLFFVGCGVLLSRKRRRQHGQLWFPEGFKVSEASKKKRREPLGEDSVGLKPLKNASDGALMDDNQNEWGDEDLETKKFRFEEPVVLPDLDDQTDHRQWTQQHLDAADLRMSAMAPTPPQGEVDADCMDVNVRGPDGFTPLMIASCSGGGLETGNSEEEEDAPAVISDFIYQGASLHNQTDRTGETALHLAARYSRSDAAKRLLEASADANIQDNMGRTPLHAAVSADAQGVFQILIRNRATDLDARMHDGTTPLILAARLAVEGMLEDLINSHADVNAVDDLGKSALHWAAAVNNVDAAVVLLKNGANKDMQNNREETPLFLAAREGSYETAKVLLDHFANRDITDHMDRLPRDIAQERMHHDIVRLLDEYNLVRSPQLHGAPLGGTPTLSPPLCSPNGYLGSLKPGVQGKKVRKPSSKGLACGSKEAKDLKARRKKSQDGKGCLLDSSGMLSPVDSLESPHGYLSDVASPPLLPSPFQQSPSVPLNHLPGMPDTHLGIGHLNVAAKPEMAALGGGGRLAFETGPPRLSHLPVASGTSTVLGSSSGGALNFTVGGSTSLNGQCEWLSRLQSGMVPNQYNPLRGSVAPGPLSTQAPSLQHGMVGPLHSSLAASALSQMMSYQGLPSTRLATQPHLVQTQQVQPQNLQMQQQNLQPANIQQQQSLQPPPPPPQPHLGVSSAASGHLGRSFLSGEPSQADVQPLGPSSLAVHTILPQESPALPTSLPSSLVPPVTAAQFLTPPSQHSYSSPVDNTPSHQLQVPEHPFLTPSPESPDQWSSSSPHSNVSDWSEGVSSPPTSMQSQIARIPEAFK

These are yes or no findings as the source states them, for the method shown. In cells and extracts the contact can be indirect.

The experiment addresses T1, IL-22R1 (human (endogenous in HK-2)) (UniProt Q8N6P7).
T1 sequence: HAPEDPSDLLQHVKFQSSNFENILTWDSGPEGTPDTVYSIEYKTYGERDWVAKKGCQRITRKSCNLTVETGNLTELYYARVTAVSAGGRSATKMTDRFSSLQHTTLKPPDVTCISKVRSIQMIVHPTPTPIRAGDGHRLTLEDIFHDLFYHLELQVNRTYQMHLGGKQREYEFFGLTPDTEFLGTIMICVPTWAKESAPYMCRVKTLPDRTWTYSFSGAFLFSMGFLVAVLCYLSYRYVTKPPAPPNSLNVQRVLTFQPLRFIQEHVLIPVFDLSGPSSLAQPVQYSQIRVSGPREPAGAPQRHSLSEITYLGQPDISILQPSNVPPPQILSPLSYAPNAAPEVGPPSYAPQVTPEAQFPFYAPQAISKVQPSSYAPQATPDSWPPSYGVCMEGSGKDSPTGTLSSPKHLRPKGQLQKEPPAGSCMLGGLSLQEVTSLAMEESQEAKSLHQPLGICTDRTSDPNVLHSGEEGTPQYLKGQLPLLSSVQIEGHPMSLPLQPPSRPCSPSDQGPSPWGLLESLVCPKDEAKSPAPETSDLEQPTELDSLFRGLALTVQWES
Kind of experiment: co-IP; HK-2 cells lysed with 0.5% NP40 lysis buffer; lysates immunoprecipitated with anti-IL-22R1 antibody, blotted with anti-Notch1 or anti-IL-22R1 antibody.

On to “Notch1 (from UniProt P46531 19-2555) (receptor)”, for which the binding result was “no binding”.
